The list shows a part of the results. Shown are side measurements of this screen, not its main read-out; they come without a call. The list favours compounds with an active or inconclusive main result. Potencies come from curve fits of mixed quality, noted in brackets.
Test: qHTS Assay for Lipid Storage Modulators in Drosophila S3 Cells;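 for cell number change: cells counted by Cell Tracker Red CMTPX staining in the red channel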
Settings: BODIPY lipid droplet fluorescence, 18-24 h; for cell number change: measured here: cell count max response, cells fed with added oleic acid
In short: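 Drosophila S3 cells loaded with oleic acid (400 uM, as added) and compounds at several concentrations; lipid droplets imaged by 488-nm laser-scanning cytometry, 500–530 nm intensity and object ratio to cell channel. Percent activity normalized to 20 uM Triacsin C.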

[1] = measured here: lipid fluorescence (Fed channel) AC50, cells fed with added oleic acid
[2] = measured here: cell number channel AC50, cells fed with added oleic acid

Row | SMILES | AC50 [1] | cell number change [%] | AC50 [2]
1 | Cc1ccc(CC(=O)Nc2nc3c(s2)CCCC3)cc1 | 5.17 µM [falling, partial curve] | – | –
2 | CCOc1ncccc1C(=O)N1CCN(S(=O)(=O)c2ccc(Br)cc2Cl)CC1 | – | -10.8 | –
3 | O=C(O)Cn1c(=O)c2c3c(sc2n(Cc2ccccc2)c1=O)CCCC3 | 13 µM [rising, partial curve, poor fit] | 12.8 | –
4 | Cc1cc(C)n(-c2ccc(C(=O)Nc3cccc(S(=O)(=O)N4CCCC4)c3)cc2)n1 | 16.4 µM [falling, single point] | -26.3 | –
5 | Cc1ccc(S(=O)(=O)N(CC(=O)NCc2cccnc2)c2ccc(F)cc2)cc1 | 0.13 µM [rising, full curve] | 31.2 | 13 µM [rising, partial curve, poor fit]
6 | c1cncc(CNc2ncnc3ccc(-c4ccc5c(c4)OCO5)cc23)c1 | – | -5.18 | –
7 | O=C(COc1ccc(/C=N/NC(=O)c2cc3ccccc3o2)cc1Cl)Nc1ccccc1 | 4.61 µM [falling, full curve] | -55.6 | 2.59 µM [falling, full curve]
8 | COc1ccccc1/C=C/C1(C(=O)NC2CCCC2)CC(=O)N1c1ccc(C)cc1 (stereo not drawn) | 16.4 µM [falling, single point] | -33.6 | 16.4 µM [falling, single point]
9 | C/C(=N/NC(=O)c1cc(-c2ccc(Br)s2)[nH]n1)c1ccco1 | 16.4 µM [falling, single point] | -15.5 | –
10 | COc1ccc2oc(C(F)(F)C(F)F)cc(=O)c2c1 | 29.1 µM [rising, single point] | 9.76 | –
11 | Cc1ccccc1NC(=S)NC(NC(=O)COc1ccccc1)C(Cl)(Cl)Cl (stereo not drawn) | 8.2 µM [falling, partial curve, poor fit] | -34.9 | 11.6 µM [falling, partial curve, poor fit]
12 | CCn1c(CCNC(=O)c2cccs2)nnc1SCC(=O)Nc1nc(-c2ccccc2)cs1 | 18.4 µM [falling, partial curve] | -59.6 | 20.6 µM [falling, partial curve]
13 | Cc1nnc(NC(=O)c2nc(S(=O)(=O)Cc3ccccc3C)ncc2Cl)s1 | – | -29.6 | 0.058 µM [falling, full curve, poor fit]
14 | COc1ccc(N=N/C(=C\O)C(=O)c2ccco2)cc1 | – | 22.9 | –
15 | O=C(Nc1ccccc1C(=O)N/N=C/c1ccco1)c1ccc(Cl)cc1 | 3.26 µM [rising, partial curve] | 11.5 | –
16 | O=C(COc1ccccc1[N+](=O)[O-])NCCCN1CCCC1=O | 6.51 µM [rising, full curve] | 38.7 | 8.2 µM [rising, partial curve]
17 | CC(C)COc1ccc(/C(O)=C2/C(=O)C(=O)N(CCN(C)C)C2c2ccncc2)cc1 (stereo not drawn) | 0.366 µM [falling, full curve] | 3.64 | 0.461 µM [falling, full curve, poor fit]
18 | Cc1cc(C)n(-c2ccc(C(=O)OCC(=O)NC(c3ccccc3)c3ccccc3)cc2)n1 | – | -5.31 | –
19 | Cc1nnc(NC(=O)C2CCCN2S(=O)(=O)c2ccc(Cl)cc2)s1 (stereo not drawn) | 29.1 µM [falling, single point] | – | 0.146 µM [falling, full curve, poor fit]
20 | COc1cc(/C=C2\SC(=S)N(NS(=O)(=O)c3ccc(C)cc3)C2=O)cc(OC)c1OC | – | -2.77 | 1.84 µM [rising, partial curve, poor fit]

Full records from above:
O=C(COc1ccccc1[N+](=O)[O-])NCCCN1CCCC1=O reads AC50 [1]: 6.51 µM [rising, full curve]; cell number change [%]: 38.7; AC50 [2]: 8.2 µM [rising, partial curve]
Cc1ccccc1NC(=S)NC(NC(=O)COc1ccccc1)C(Cl)(Cl)Cl (stereo not drawn) reads AC50 [1]: 8.2 µM [falling, partial curve, poor fit]; cell number change [%]: -34.9; AC50 [2]: 11.6 µM [falling, partial curve, poor fit]
O=C(COc1ccc(/C=N/NC(=O)c2cc3ccccc3o2)cc1Cl)Nc1ccccc1 reads AC50 [1]: 4.61 µM [falling, full curve]; cell number change [%]: -55.6; AC50 [2]: 2.59 µM [falling, full curve]
Cc1cc(C)n(-c2ccc(C(=O)Nc3cccc(S(=O)(=O)N4CCCC4)c3)cc2)n1 reads AC50 [1]: 16.4 µM [falling, single point]; cell number change [%]: -26.3

(listing goes on)

Row | SMILES | AC50 [1] | cell number change [%] | AC50 [2]
21 | COc1cc2c(C(=O)N3CCN(c4ccccc4F)CC3)cn(C)c(=O)c2cc1OC | 2.31 µM [rising, full curve, poor fit] | -1.2 | 2.31 µM [rising, partial curve]
22 | COc1cccc(N(C(=O)c2snc(C(N)=O)c2N)C(C(=O)NCC2CCCO2)c2cccs2)c1 (stereo not drawn) | – | -7.98 | –
23 | c1csc(-c2nnc(COc3ccc4c(c3)OCO4)o2)c1 | – | 8.74 | –
24 | Nc1nc(SCC(=O)Nc2ccccc2-c2ccccc2)n[nH]1 | – | – | 2.91 µM [rising, single point]
25 | O=C(NC1CCCC1)c1cc(-c2ccccc2)nc2ccccc12 | – | -8.01 | –
26 | CC(Oc1ccccc1)C(=O)NC1=NCCS1 (stereo not drawn) | 35.5 µM [rising, single point] | 14.3 | –
27 | CCOC(=O)c1cccc(NC(=O)C2CCCN(S(=O)(=O)c3cnc[nH]3)C2)c1 (stereo not drawn) | 0.184 µM [rising, full curve, poor fit] | 19.5 | –
28 | CC(NS(=O)(=O)c1ccc(OCC(=O)Nc2cccc([N+](=O)[O-])c2)cc1)c1ccccc1 (stereo not drawn) | 3.26 µM [rising, partial curve] | 53.1 | 18.4 µM [rising, single point]
29 | O=C1OCC(c2ccccc2)=C1c1ccc(S(=O)(=O)N2CCOCC2)s1 | – | 5.35 | –
30 | CCCCCc1cc(=O)oc2c(C(CCN3CCCC(C)C3)c3ccc(OC)cc3)c(OC)cc(OC)c12 (stereo not drawn) | – | -77.6 | 29.1 µM [falling, single point]
31 | O=C(NCc1ccco1)C1CCCN(c2ncnc3c2nc2n3CCCCC2)C1 (stereo not drawn) | 3.66 µM [rising, single point] | -2.29 | –
32 | CCOC(=O)C1CCN(C(=O)c2cn(-c3ccccc3)nc2-c2cccnc2)CC1 | – | 2.83 | –
33 | Cc1ccc(SCC(=O)Nc2cc(C)on2)cc1 | 0.517 µM [falling, full curve, poor fit] | 21.5 | –
34 | CCOC(=O)c1ccc(NC(=O)C2CCCN(S(=O)(=O)c3cnc[nH]3)C2)cc1 (stereo not drawn) | 0.58 µM [rising, full curve, poor fit] | 13.3 | –
35 | COc1ccc(N2CCN(C(=O)CCc3nnc4ccc(N5CCC(C)CC5)nn34)CC2)cc1 | 23.1 µM [falling, single point] | -51 | 32.6 µM [falling, partial curve, poor fit]
36 | Cc1cc(=O)c2cc(C(=O)c3ccccc3)ccc2[nH]1 | 0.259 µM [falling, full curve, poor fit] | -21.6 | –
37 | CCOC(=O)N/N=C(\C)c1ccc(-n2cnnn2)cc1 | – | 44 | 0.291 µM [rising, single point]
38 | C/C(=C\C(=O)c1ccc(Br)cc1)NCc1ccc2c(c1)OCO2 | 25.9 µM [falling, partial curve] | – | –
39 | O=C(CCl)Nc1ccc(S(=O)(=O)Nc2nccs2)cc1 | 3.66 µM [rising, partial curve, poor fit] | -12.8 | –
40 | CC1CCC(NC(=O)Cn2c(=O)oc3cc(S(=O)(=O)N4CCCC4)ccc32)CC1 (stereo not drawn) | 11.6 µM [falling, partial curve] | 16.8 | –

Row | SMILES | AC50 [1] | cell number change [%] | AC50 [2]
41 | CC(=O)c1cc(NC(=O)c2cccc(C(F)(F)F)c2)c(=O)oc1/C=C/N(C)C | 29.1 µM [rising, single point] | – | –
42 | CCOC(=O)c1cccc(NC(=O)c2ccc3c(c2)C(=O)N(CC2CCCO2)C3=O)c1 (stereo not drawn) | 6.51 µM [falling, full curve] | -23.4 | –
43 | Cc1ccc(-c2cc(C(=O)N3CC(C)CC(C)C3)c3ccccc3n2)o1 (stereo not drawn) | – | -14.3 | –
44 | COc1ccc(C(=O)Nc2cnccn2)cc1[N+](=O)[O-] | – | 6.03 | –
45 | Brc1ccc(-c2nc(-c3ccccc3)no2)o1 | 20.6 µM [rising, partial curve] | 219 | 18.4 µM [rising, partial curve]
46 | O=C(COC(=O)c1ccc(Br)o1)Nc1cccc(S(=O)(=O)N2CCCCCC2)c1 | 29.1 µM [rising, single point] | 78 | 20.6 µM [rising, single point]
47 | Cc1cc(C)c(C#N)c(SCc2ccc3c(c2)OCO3)n1 | 1.84 µM [rising, full curve] | 0.947 | –
48 | CCC(=O)N1CCc2cc(Br)cc(S(=O)(=O)NCc3ccco3)c21 | 29.1 µM [falling, single point] | -58.5 | 29.1 µM [falling, single point]
49 | COC(=O)c1cnn(C(=O)c2cc(OC)ccc2Br)c1N | – | -13.5 | 0.411 µM [rising, single point]
50 | O=C(Cn1nnc(-c2ccccc2)n1)NC(=O)NC1CCCC1 | – | 21.9 | –
51 | O=C(N=C1c2ccccc2CN1c1ccccc1)c1cccc([N+](=O)[O-])c1 | 0.103 µM [rising, full curve, poor fit] | 29.3 | 2.91 µM [rising, full curve, poor fit]
52 | O=C(N/N=C\c1ccc(F)cc1)c1ccc(Cn2cc(Br)c([N+](=O)[O-])n2)o1 | 18.4 µM [rising, single point] | 15.8 | –
53 | Cc1ccc(NC(=S)N2CCC(N(C)CC3CCCO3)CC2)c(C)c1 (stereo not drawn) | 0.13 µM [falling, full curve, poor fit] | 2.11 | –
54 | COc1ccc2[nH]c(=O)c(CN(C(=O)c3cccnc3)c3ccccc3)cc2c1 | 8.2 µM [rising, partial curve] | 25.2 | –
55 | CCn1nc(C(=O)N[C@@H](CCSC)c2nc3ccccc3[nH]2)c2ccccc2c1=O | 8.2 µM [rising, partial curve] | – | 6.51 µM [rising, single point]
56 | CCOC(=O)c1c(-c2ccccc2)[nH]c2ccc(O)cc12 | 18.4 µM [rising, single point] | -4.33 | –
57 | COc1ccc(CCNC(=O)CSc2nnc(-c3ccccc3)o2)cc1OC | – | -12 | –
58 | COc1cc([N+](=O)[O-])ccc1NC(=O)NNC(=O)C(C)Oc1ccc(F)cc1F (stereo not drawn) | 35.5 µM [rising, single point] | 18.1 | –

From PubChem BioAssay AID2685 (National Center for Advancing Translational Sciences (NCATS), 2010)
